In publication PMC7862700 one finds binding signal data, which are given here for 40 sequences.

The list shows a part of the results, in another mix than the full data. At the low end of the ranking the order means little.

For the assay, the target named is SPI1 (UniProt P17947). Briefly: DAPPL (digital affinity profiling via proximity ligation, sequencing). The note with it: 10 mM Tris-HCl pH 7.5, 50 mM NaCl, 1 mM DTT, 4% glycerol, room temperature, 30 min; GST-TFs on glutathione beads, 16-mer random dsDNA library, 0.1% …; high values mean tight binding; double strand, one strand shown; scale: fold enrichment (6-mer frequency, TF over GST control).
On to AGTCGC, for which the binding signal worked out at 0.593.
Then GACGAA, with 0.847; and AGTCGG, with 0.163.
Then ACTGTG, with 0.497.
In turn, GAGATT showed a binding signal of 0.746.
In turn, GGGATC gave a binding signal of 0.623.
Then CCGGGG, with 0.792; and CGAGGG, with 0.731; and GTGAAC, with 0.852.
GCGAGT displayed a binding signal of 0.547.
In turn, GCGAGA gave a binding signal of 0.501.
Then CCAGCC, with 0.771; and GACTAG, with 0.733.
Then CAGCCG, with 0.624.
The sequence GACGCG registered a binding signal of 0.664.
Then AGTCAT, with 0.654; and TCCGTG, with 0.517; and GTCGGA, with 0.176.
Then CACGGG, with 0.701; and TAGACC, with 0.82.
The sequence GGTCGT showed a binding signal of 0.661.
The figure for GGACAA is 0.741.
The figure for GGCGAA is 0.721.
CGGGTA showed a binding signal of 0.737.
The sequence GACAAA came in with a binding signal of 0.878.
Take CGGTAA: the binding signal turned out to be 0.904.
Then AAGACG, with 0.792; and GAACGT, with 0.39; and GGAGTA, with 0.349.
Then CGCAGG, with 0.888; and AGCGTG, with 0.364.
Then AAGGAG, with 0.344; and TAGCCG, with 0.807.
CAGCGG: the binding signal turned out to be 0.411.
Then CGGGTT, with 0.851; and TGGGGA, with 0.957.
The figure for TACAGT is 0.873.
Then GGCGAG, with 0.509; and ACGGTG, with 0.529.
Consider GGGTAC, for which the binding signal was 0.943.
